Consider two substances from publication PMC4494927, “Discovery of a small molecule targeting SET-PP2A interaction to overcome BCR-ABLT315I mutation of chronic myeloid leukemia” (Oncotarget, 2015).

By UniProt entry, the sequences of proteins in these tests, tags left out. Where a name states a change or a piece, a line headed by the entry shows the natural chain unless it says otherwise. Chains listed by the source or under a name are the forms on record and can include a tag or linker.
UniProt Q9EQU5: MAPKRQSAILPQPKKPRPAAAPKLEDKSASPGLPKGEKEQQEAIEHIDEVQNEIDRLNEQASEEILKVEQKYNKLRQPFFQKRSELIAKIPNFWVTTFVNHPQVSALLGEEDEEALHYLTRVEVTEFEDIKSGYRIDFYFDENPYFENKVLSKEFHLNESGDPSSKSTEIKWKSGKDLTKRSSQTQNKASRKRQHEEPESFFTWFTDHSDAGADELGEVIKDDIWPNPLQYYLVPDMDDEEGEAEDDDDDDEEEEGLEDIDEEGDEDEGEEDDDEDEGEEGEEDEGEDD
SET (endogenous, K562 cells) (human (endogenous in K562)) (Q01105, form named): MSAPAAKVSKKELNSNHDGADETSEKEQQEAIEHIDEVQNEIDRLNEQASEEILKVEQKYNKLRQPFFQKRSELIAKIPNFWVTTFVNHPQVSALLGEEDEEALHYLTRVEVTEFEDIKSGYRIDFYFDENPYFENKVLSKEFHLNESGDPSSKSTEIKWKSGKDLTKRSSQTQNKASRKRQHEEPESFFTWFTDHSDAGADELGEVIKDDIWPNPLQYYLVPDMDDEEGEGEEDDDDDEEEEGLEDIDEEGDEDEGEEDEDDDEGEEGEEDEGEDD
UniProt P63330: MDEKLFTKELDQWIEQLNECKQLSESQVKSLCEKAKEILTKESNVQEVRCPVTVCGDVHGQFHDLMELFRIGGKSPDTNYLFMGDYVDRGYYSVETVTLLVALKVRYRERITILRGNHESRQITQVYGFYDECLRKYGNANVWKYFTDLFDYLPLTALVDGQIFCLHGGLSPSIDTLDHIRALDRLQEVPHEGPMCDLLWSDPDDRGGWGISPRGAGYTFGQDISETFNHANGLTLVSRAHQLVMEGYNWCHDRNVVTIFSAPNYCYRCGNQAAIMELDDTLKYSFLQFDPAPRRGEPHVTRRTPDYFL
UniProt P67775: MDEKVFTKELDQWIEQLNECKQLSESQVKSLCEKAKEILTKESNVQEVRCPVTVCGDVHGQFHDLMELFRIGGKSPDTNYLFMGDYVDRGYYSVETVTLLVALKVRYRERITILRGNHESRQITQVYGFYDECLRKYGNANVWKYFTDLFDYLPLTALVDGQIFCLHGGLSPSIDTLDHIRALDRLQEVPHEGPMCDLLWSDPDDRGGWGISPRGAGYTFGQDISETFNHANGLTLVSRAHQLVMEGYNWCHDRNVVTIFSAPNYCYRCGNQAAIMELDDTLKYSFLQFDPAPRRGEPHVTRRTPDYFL

Experiment [1] concerns the target SET (endogenous, murine BaF3-p210^T315I cells) (mouse (endogenous in BaF3-p210^T315I)) (UniProt Q9EQU5). Briefly: co-IP; endogenous proteins; homogenized tissues of BaF3-p210^T315I xenografted tumors from mice treated with saline (vehicle) or TGI1002 (30, 45 and 60 mg/kg); PP2Ac and SET immunoprecipitated; Western blot.
For experiment [2] the target is unchanged. The experiment is described as follows: co-IP; endogenous proteins; lysates (200 μg) of cells incubated with or without TGI1002 for 24 h; antibodies against SET or PP2Ac, protein A/G plus agarose, 4 °C; 20 mM Tris-HCl pH 7.0, 150 mM NaCl, 1 mM EDTA, 1 mM MgCl, 0.5% NP-40; Western blot.
The target in experiment [3] is SET (endogenous, K562 cells) (human (endogenous in K562)) (UniProt Q01105). The experiment is described as above.

No constants are given. Whether binding was seen depends on the method and setting. In cells and extracts the contact can be indirect. Binding can be weak; no strength is given.

On to “catalytic subunit of PP2A (PP2Ac) (endogenous, murine BaF3-p210^T315I cells) (from UniProt P63330) (enzyme)”, for which the binding entry in experiment [1] and in experiment [2] was “binds” throughout.
As for “catalytic subunit of PP2A (PP2Ac) (endogenous, K562 cells) (from UniProt P67775) (enzyme)”, in experiment [3], the binding result was “binds”.
